Where “and” joins values, the source holds several entries; their conditions need not be identical. Equal values may be shown once. Not every detail of the peptide structures is certain; ends, links or a residue may be inferred.
Tested on: anasthetized cat
Assay: secretin bioassay: secretion of pancreatic juice in the anaesthetized cat
Type: in vivo
Conditions: compared to pure porcine VIP standard

| Compound | Response: Micromoles alkali secreted (dose 5/ug) | Response: Micromoles alkali secreted (dose 10/ug) [Micromoles] |
| --- | --- | --- |
| CC[C@H](C)[C@H](NC(=O)[C@H](CO)NC(=O)[C@H](CC(N)=O)NC(=O)[C@H](CC(C)C)NC(=O)[C@H](Cc1ccc(O)cc1)NC(=O)[C@H](CCCCN)NC(=O)[C@H](CCCCN)NC(=O)[C@@H](NC(=O)[C@H](C)NC(=O)[C@H](CCSC)NC(=O)[C@H](CCC(N)=O)NC(=O)[C@H](CCCCN)NC(=O)[C@H](CCCNC(=N)N)NC(=O)[C@H](CC(C)C)NC(=O)[C@H](CCCNC(=N)N)NC(=O)[C@@H](NC(=O)[C@H](Cc1ccc(O)cc1)NC(=O)[C@H](CC(N)=O)NC(=O)[C@H](CC(=O)O)NC(=O)[C@@H](NC(=O)[C@H](Cc1ccccc1)NC(=O)[C@@H](NC(=O)[C@H](C)NC(=O)[C@H](CC(=O)O)NC(=O)[C@H](CO)NC(=O)[C@@H](N)Cc1c[nH]cn1)C(C)C)[C@@H](C)O)[C@@H](C)O)C(C)C)C(=O)N[C@@H](CC(C)C)C(=O)N[C@@H](CC(N)=O)C(N)=O [VIP, vasoactive intestinal polypeptide] | 80 Micromoles and 110 Micromoles | 180 |
| CC[C@H](C)[C@H](NC(=O)[C@H](CO)NC(=O)[C@H](CC(N)=O)NC(=O)[C@H](CC(C)C)NC(=O)[C@H](Cc1ccc(O)cc1)NC(=O)[C@H](CCCCN)NC(=O)[C@H](CCCCN)NC(=O)[C@@H](NC(=O)[C@H](C)NC(=O)[C@H](CCSC)NC(=O)[C@H](CCC(N)=O)NC(=O)[C@H](CCCCN)NC(=O)[C@H](CCCNC(=N)N)NC(=O)[C@H](CC(C)C)NC(=O)[C@H](CCCNC(=N)N)NC(=O)[C@@H](NC(=O)[C@H](Cc1ccc(O)cc1)NC(=O)[C@H](CC(N)=O)NC(=O)[C@H](CC(=O)O)NC(=O)[C@@H](NC(=O)[C@H](Cc1ccccc1)NC(=O)[C@@H](NC(=O)[C@H](C)NC(=O)[C@H](CC(=O)O)NC(=O)[C@H](CO)NC(=O)[C@@H](N)Cc1c[nH]cn1)C(C)C)[C@@H](C)O)[C@@H](C)O)C(C)C)C(=O)N[C@@H](CC(C)C)C(=O)N[C@@H](CC(N)=O)C(=O)NCC(=O)N[C@@H](CCCCN)C(=O)N[C@@H](CCCNC(=N)N)C(=O)O [VIP GKR] | 46 Micromoles | 95 |

Source: EP0297068A2, “Mammal intestine hormone precursor” (KabiGen AB, priority 1987, dated 1988)
